Like-named read-outs stand apart in the source and are kept apart here. The source gives many values for each of these; only a part stands here.
Test system: ATCC strain 43300 Staphylococcus aureus
Settings: 24 hours

Q: With CS(C)(=O)=O [MSM, Methylsulfonylmethane] as the compound, how does the “survival, Average Log” value (12 μg/ml methicillin + MSM (% in label), listed as 5% MSM) read?
A: 2.9 Log

Q: And the “survival, Average Log” value (12 μg/ml methicillin + MSM (% in label), listed as 6% MSM)?
A: 2.6 Log

Q: And the “survival, Average Log” value (12 μg/ml methicillin + MSM (% in label), listed as 7% MSM)?
A: 2.7 Log

Q: And the “survival, Average Log” value (12 μg/ml methicillin + MSM (% in label), listed as 8% MSM)?
A: 3.0 Log

Q: And the “survival, Average Log” value (12 μg/ml methicillin + MSM (% in label), listed as 9% MSM)?
A: 3.0 Log

Q: What about the “survival, Average Log” value (12 μg/ml methicillin + MSM (% in label), listed as 10% MSM) of the same compound?
A: 3.1 Log

Q: And the “survival, Average Log” value (12 μg/ml methicillin + MSM (% in label), listed as 11% MSM)?
A: 3.3 Log

Q: What about the “survival, Average Log” value (12 μg/ml methicillin + MSM (% in label), listed as 12% MSM) of the same compound?
A: 3.5 Log

Q: What about the “survival, Average Log” value (12 μg/ml methicillin + MSM (% in label), listed as 13% MSM) of the same compound?
A: 3.5 Log

Q: And the “survival, Average Log” value (12 μg/ml methicillin + MSM (% in label), listed as 14% MSM)?
A: 3.9 Log

Q: And the “survival, Average Log” value (12 μg/ml methicillin + MSM (% in label), listed as 15% MSM)?
A: 3.8 Log

Q: What about the “survival, Average Log” value (12 μg/ml methicillin + MSM (% in label), listed as 16% MSM) of the same compound?
A: 3.0 Log

Q: And the “survival, Average Log” value (30 μg/ml methicillin + MSM (% in label), listed as 5% MSM)?
A: 2.6 Log

Q: And the “survival, Average Log” value (30 μg/ml methicillin + MSM (% in label), listed as 6% MSM)?
A: 2.4 Log

Q: What about the “survival, Average Log” value (30 μg/ml methicillin + MSM (% in label), listed as 7% MSM) of the same compound?
A: 2.5 Log

Q: What about the “survival, Average Log” value (30 μg/ml methicillin + MSM (% in label), listed as 8% MSM) of the same compound?
A: 3.0 Log

Q: What about the “survival, Average Log” value (30 μg/ml methicillin + MSM (% in label), listed as 9% MSM) of the same compound?
A: 3.1 Log

Q: And the “survival, Average Log” value (30 μg/ml methicillin + MSM (% in label), listed as 10% MSM)?
A: 3.1 Log

Q: And the “survival, Average Log” value (30 μg/ml methicillin + MSM (% in label), listed as 11% MSM)?
A: 3.5 Log

Q: What about the “survival, Average Log” value (30 μg/ml methicillin + MSM (% in label), listed as 12% MSM) of the same compound?
A: 3.5 Log

Q: What about the “survival, Average Log” value (30 μg/ml methicillin + MSM (% in label), listed as 13% MSM) of the same compound?
A: 3.8 Log

Q: And the “survival, Average Log” value (30 μg/ml methicillin + MSM (% in label), listed as 14% MSM)?
A: 3.8 Log

Q: And the “survival, Average Log” value (30 μg/ml methicillin + MSM (% in label), listed as 15% MSM)?
A: 3.9 Log

Q: What about the “survival, Average Log” value (30 μg/ml methicillin + MSM (% in label), listed as 16% MSM) of the same compound?
A: 4.0 Log

Q: And the “survival, Average Log” value (60 μg/ml methicillin + MSM (% in label), listed as 5% MSM)?
A: 2.9 Log

Q: And the “survival, Average Log” value (60 μg/ml methicillin + MSM (% in label), listed as 6% MSM)?
A: 2.6 Log

Q: And the “survival, Average Log” value (60 μg/ml methicillin + MSM (% in label), listed as 7% MSM)?
A: 2.8 Log

Q: What about the “survival, Average Log” value (60 μg/ml methicillin + MSM (% in label), listed as 8% MSM) of the same compound?
A: 3.0 Log

Q: What about the “survival, Average Log” value (60 μg/ml methicillin + MSM (% in label), listed as 9% MSM) of the same compound?
A: 3.2 Log

Q: And the “survival, Average Log” value (60 μg/ml methicillin + MSM (% in label), listed as 10% MSM)?
A: 3.3 Log

Q: And the “survival, Average Log” value (60 μg/ml methicillin + MSM (% in label), listed as 11% MSM)?
A: 3.6 Log

Q: What about the “survival, Average Log” value (60 μg/ml methicillin + MSM (% in label), listed as 12% MSM) of the same compound?
A: 3.6 Log

Q: What about the “survival, Average Log” value (60 μg/ml methicillin + MSM (% in label), listed as 13% MSM) of the same compound?
A: 3.8 Log

Q: And the “survival, Average Log” value (60 μg/ml methicillin + MSM (% in label), listed as 14% MSM)?
A: 3.9 Log

Q: And the “survival, Average Log” value (60 μg/ml methicillin + MSM (% in label), listed as 15% MSM)?
A: 3.9 Log

Q: What about the “survival, Average Log” value (60 μg/ml methicillin + MSM (% in label), listed as 16% MSM) of the same compound?
A: 3.9 Log

Source: US20130338130A1 (priority 2009, published 2013)
